{"source": "paper PMC4267635", "tested_on": "TCF1EWT (full-length human TCF1E, C-clamp isoform) (human)", "assay": "EMSA", "details": "COS-1 lysate, salmon sperm DNA competitor; EMSA: 10 mM HEPES pH 8.0, 2.5 mM EDTA, 10% glycerol, 20 mM KCl, 5 mM MgCl2, 0.024 ug/ul salmon sperm DNA, 20 mM DTT, 1 ng 32P probe in 20 ul; temperature not stated; protein in a lysate after overexpression; label: 32P", "note": "Construct, isoform or probe ends are uncertain for at least one entry. Where cells or extracts were used, other partners may take part. A weaker result is weaker than the reference pair of the same experiment.", "data": [{"sequence": "AGCCGCTATTCTTTGATGATTGGGTAGCGGCAAACTTCAAAGCC (double strand) [SP5 WT]", "values": [{"measurement": "binding result", "result": "binds"}]}, {"sequence": "AGTATATATTCTTTGATGATTGGGTAGTTATAAACTTCAAAGCC (double strand) [SP5 mut]", "values": [{"measurement": "binding result", "result": "binds more weakly"}]}]}
